85 compounds from PubChem BioAssay AID485318 (Broad Institute, 2010) can be followed below.

The chains behind the UniProt entries cited, without tags or fusion partners. Where a name states a change or a piece, a line headed by the entry shows the natural chain unless it says otherwise.
UniProt O15379: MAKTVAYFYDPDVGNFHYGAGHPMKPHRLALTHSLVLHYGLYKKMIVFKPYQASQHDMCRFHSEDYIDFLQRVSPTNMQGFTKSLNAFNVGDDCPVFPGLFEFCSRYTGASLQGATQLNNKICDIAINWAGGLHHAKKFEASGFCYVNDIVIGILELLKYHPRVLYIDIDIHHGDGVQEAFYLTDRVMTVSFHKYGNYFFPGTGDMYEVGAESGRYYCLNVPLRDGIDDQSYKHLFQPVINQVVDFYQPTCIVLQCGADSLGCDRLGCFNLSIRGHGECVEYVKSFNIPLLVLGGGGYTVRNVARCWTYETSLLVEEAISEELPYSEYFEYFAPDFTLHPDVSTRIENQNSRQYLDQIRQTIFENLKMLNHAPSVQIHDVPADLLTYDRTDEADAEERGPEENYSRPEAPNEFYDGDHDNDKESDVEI

SMILES strings stand for the structures. The whole screen tested about 1,400 compounds, of which fewer than 10 were called active.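 The calls were made as follows: active = fluorescence-lowering compounds whose fitted half-maximal concentration is at or below ten times the highest valid dose tested; inconclusive = flat curve at 30 to 70% inhibition, or poor fit; inactive = the rest.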 Some of the results follow.

The target in this test is Histone deacetylase 3 (Homo sapiens) (UniProt O15379). The test can be described thus: inhibition of human HDAC3 enzymatic activity – biochemical, fluorescence, cherry-picked samples, counter-screen for JMJD2C/GASC1 demethylase inhibitor project, dose response (AID 485318).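 Also: enzyme preincubated with compound before substrate and trypsin were added; 0% = neutral control wells and -100% = SAHA positive control wells.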 The conditions noted are these: recombinant HDAC3, fluorogenic peptide/trypsin coupled; at 12 µM (top of the series). For orientation: The purpose of a counterscreen is to sort out artefacts and off-target activity.
In the case of `O=C(Nc1cccc2ccccc12)OC1C=CS(=O)(=O)C1` (stereo not given), the activity change, negative = inhibition is inactive: -0.311%. With `C[C@]12c3[nH]c4ccccc4c3CCN1C(=O)C(CC(=O)NCCN1CCOCC1)C[C@@H]2C(=O)N1CCCCC1` (stereo not given in full) the figure was inactive: 0.21%; with `COc1cccc(/C=C/C(=O)NCCc2ccc(OC)c(OC)c2)c1`, inactive: 0.228%; with `Cc1ccc2c(c1)C(=O)N1[C@H]3c4cc(Cl)ccc4OC[C@@H]3[C@H](c3ccccc3)[C@]1(C)C(=O)N2`, inactive: 0.114%. Next, `CCS(=O)(=O)Nc1ccc(C2=NN(C(=O)c3ccco3)C(c3ccc(C)cc3)C2)cc1` (stereo not given): inactive: -0.125%; `CCCCCCn1c(=O)[nH]c2nc3cc(N)ccc3nc2c1=O`: inactive: -0.461%. Next, `Cc1ccc(CSc2ncnc3onc(C)c23)cc1`: inactive: -0.218%.

Consider `C[C@@H]1CCCCCCCCC(=O)OCCN(C(=O)OC(C)(C)C)[C@H](C)CCCCCCCCC(=O)OCCN(C(=O)OC(C)(C)C)[C@H](C)CCCCCCCCC(=O)OCCN1C(=O)OC(C)(C)C`, for which the activity change, negative = inhibition was inactive: 0.233%. Take `COc1ccc2sc(-c3ccc(S(C)(=O)=O)cc3)c(C#CCO)c2c1`: the activity change, negative = inhibition is inactive: -0.136%. On to `COc1ccc(OC)c(N(CC(=O)NCc2ccncc2)S(C)(=O)=O)c1`, for which the activity change, negative = inhibition was inactive: -0.393%.

Take `CC(C)=CC(=O)O[C@@H]1Cc2c(ccc3ccc(=O)oc23)OC1(C)C`: the activity change, negative = inhibition is inactive: 0.656%. Next, `O=C1CC2C(=O)NCCN2C(=NC(=O)c2ccccc2)N1` (stereo not given): inactive: -1.08%; `C[C@H]1CN([C@@H](C)CO)C(=O)c2cccc(NC(=O)C3CC3)c2O[C@H]1CN(C)Cc1ccncc1`: inactive: 0.314%; `CSCCC(NS(=O)(=O)c1ccc(Cl)cc1)C(=O)O` (stereo not given): inactive: 0.172%.

For `Cc1cc(=O)[nH]c(SCC(=O)Nc2ncc(S(=O)(=O)c3ccc([N+](=O)[O-])cc3)s2)n1`, the activity change, negative = inhibition is inactive: 0.676%. Next, `CC1CCCCC12NC(=O)N(CC(=O)NCCc1ccccn1)C2=O` (stereo not given): inactive: -0.204%; `COc1ccc(/C=C/C(=O)NC(=S)NNC(=O)Cc2cccs2)cc1OC`: inactive: -0.579%. With `Cn1c2c(c(=O)n(C)c1=O)CN(CCCN1CCOCC1)CN2` the figure was inactive: 0.55%. Next, `CCOC(=O)c1[nH]c(C)c(/C(O)=C2\C(=O)C(=O)N(CCCN(CC)CC)C2c2cccnc2)c1C` (stereo not given): inactive: 0.131%; `Cc1cccc(NC(=S)N(CCN2CCOCC2)Cc2cc3cc4c(cc3[nH]c2=O)OCO4)c1`: inactive: -0.159%; `Cc1ccc(N2CC(C(=O)Nc3ccc(N(C)C)cc3)CC2=O)cc1C` (stereo not given): inactive: 0.359%. For the compound `C=CCn1cnc2scc(-c3ccc(C)cc3)c2c1=O`, the activity change, negative = inhibition was inactive: 0.314%. Next, `NNC(=O)c1nn(-c2ccc(Cl)cc2)ccc1=O`: inactive: 0.679%; `Nc1ccc(S(=O)(=O)NC2(C(F)(F)F)NC(=O)N(c3ccc(F)cc3)C2=O)cc1` (stereo not given): inactive: -0.564%. With `Cc1cccc(C)c1NC(=S)NN(Cc1ccccc1)c1ccccc1` the figure was inactive: 0.43%; with `CCOc1ccc(NC(=O)CSc2nnc(-c3ccccc3)n2N)cc1`, inactive: 0.611%. For the compound `CCCc1nnc(SCC(=O)N2CCCC2)n1CC1CCCO1` (stereo not given), the activity change, negative = inhibition was inactive: 1.01%. Next, `Cc1cccc(C)c1NC1=NC(=S)N(c2ccc(C(=O)O)cc2)C12CCCCC2`: inactive: 0.476%.

As for `C=CCOC(=O)C1=C(C)NC(=O)NC1c1ccc(OC(=O)c2ccco2)c(OC)c1` (stereo not given), the activity change, negative = inhibition is inactive: 0.285%.

As for `COc1ccccc1Nc1ncnc2ccccc12`, the activity change, negative = inhibition is inactive: 0.689%. Next, `Cc1ccsc1C(=O)OCc1nc2ccccc2c(=O)[nH]1`: inactive: -0.356%.

For `COc1ccc(Nc2cccc(Cl)c2)c(C(=O)O)c1`, the activity change, negative = inhibition is inactive: -0.486%.

Consider `CCCn1nnnc1SCC(=O)NCc1ccc2c(c1)OCO2`, for which the activity change, negative = inhibition was inactive: 0.24%.

Regarding `COC(=O)c1ccc(CSc2nnc(N)s2)o1`, the activity change, negative = inhibition was inactive: 0.282%. Next, `COc1ccccc1N=Cc1c(C)c(C#N)c2[nH]c3ccccc3n2c1=O`: inactive: -0.155%; `C[C@H]1CN([C@@H](C)CO)C(=O)c2cc(NC(=O)C3CCCCC3)ccc2O[C@H]1CN(C)S(=O)(=O)c1ccccc1`: inactive: -0.847%; `C=CCn1c(-c2cccc3ccccc23)n[nH]c1=S`: inactive: 0.581%. With `O=C(CNC(=O)c1ccccc1O)N/N=C/c1cc(Br)ccc1OC(=O)/C=C/c1ccco1` the figure was inactive: 0.283%; with `C/C(=N\Nc1nc(C(=O)O)cs1)c1ccccc1`, inactive: -0.586%.

Regarding `COc1cc2nc(-c3ccccc3C)oc(=O)c2cc1OC`, the activity change, negative = inhibition was inactive: -0.144%. In the case of `COc1ccc2c(C)nc(Nc3nc(C)cc(C)n3)nc2c1`, the activity change, negative = inhibition was inactive: -0.277%. With `Cc1ccc(N(CC(=O)N2CCn3c2nc2ccccc23)S(=O)(=O)c2c(C)n[nH]c2C)cc1` the figure was inactive: 0.776%; with `CCOC(=O)C1=C(CSc2nc(-c3ccncc3)ccc2C#N)OC(N)=C(C#N)C1c1cccnc1` (stereo not given), inactive: 0.789%; with `O=S(=O)(Nc1ccccc1)c1ccc(NS(=O)(=O)c2c(F)cccc2F)cc1`, inactive: -0.142%.

Take `O=C1CCCc2c1nc(-c1ccccc1)n2O`: the activity change, negative = inhibition was inactive: 0.0393%.

Turning to `COC(=O)c1ccc(/C=C/c2c(-c3ccc(OC)cc3)sc3ccccc23)cc1`, the activity change, negative = inhibition was inactive: -0.0926%. With `CCOC(=O)N1CCN(C(=S)NC(C)(C)C)CC1` the figure was inactive: -0.408%. Next, `CN(C)C(=O)c1cccc(-c2csc(N3CCC(C(N)=O)CC3)n2)c1`: inactive: 0.16%; `COC(=O)c1nn(Cc2ccccc2)c(=O)c2ccccc12`: inactive: 0.629%. With `CCc1nc(NCc2ccc3c(c2)OCO3)c2oc3ccccc3c2n1` the figure was inactive: 0.522%. Consider `C/C=C(\C)c1nnc(NC(=O)C(C)C)s1`, for which the activity change, negative = inhibition was inactive: 0.318%. With `CN(C)c1ccc(C2Nc3ccccc3C(=O)N2CCN2CCNC2=O)cc1` (stereo not given) the figure was inactive: -0.413%; with `CC12CN3CC(C)(CN(C1)C3c1ccc3ccccc3c1O)C2=O` (stereo not given), inactive: 0.769%; with `CN1CCN(C(=O)CN(c2ccccc2)S(=O)(=O)N(C)C)CC1`, inactive: 0.189%. Next, `CN1C(=O)/C(=C2\SC(=S)N(C(CCC(=O)O)C(=O)O)C2=O)c2ccccc21` (stereo not given): inactive: -1.81%. Next, `CCOC(=O)N1CCN(S(=O)(=O)c2ccc3c(c2)CCN3C(=O)C2CC2)CC1`: inactive: -0.468%; `O=C(COc1c(CO)cc(Br)cc1CO)NC1CCCc2ccccc21` (stereo not given): inactive: 0.615%. In the case of `CC(C)(C)c1ccc(OCCC(=O)NC2=NCCS2)cc1`, the activity change, negative = inhibition was inactive: -0.0775%.

For the compound `Cc1ccccc1CNc1nnnn1C`, the activity change, negative = inhibition was inactive: 1.02%. As to `COc1cccc(C(C[N+](=O)[O-])c2c(C)[nH]n(-c3ccccc3)c2=O)c1` (stereo not given), the activity change, negative = inhibition was inactive: 0.217%. Regarding `Cc1cc(C)nc(NCc2ccc(Cl)cc2)n1`, the activity change, negative = inhibition is inactive: -0.249%. With `Cc1nn(Cc2ccc([N+](=O)[O-])cc2)c(=O)n1-c1cccc(Cl)c1` the figure was inactive: -0.473%. Consider `COc1cccc(Oc2nccc(N(C)C)c2C#N)c1`, for which the activity change, negative = inhibition is inactive: -0.661%. Next, `O=C(Cn1cnc2c(OCc3ccccc3)ncnc21)NCCCc1ccccc1`: inactive: -0.642%; `Cc1cccnc1Nc1nc(-c2ccc(O)cc2)cs1`: inactive: 0.343%. For `Cc1ccc(S(=O)(=O)Nc2ccc3c(c2)C(=O)N([C@H](C)CO)C[C@@H](C)[C@@H](CN(C)C(=O)Nc2cccc4ccccc24)O3)cc1`, the activity change, negative = inhibition was inactive: 0.0856%.

Take `Cc1cc(N/N=C/c2ccc(O)cc2O)nc(-n2nc(C)cc2C)n1`: the activity change, negative = inhibition was inactive: 0.372%. Next, `CCOc1cc(/C=C\c2[nH]c(=O)[nH]c(=O)c2[N+](=O)[O-])ccc1OC(C)CC` (stereo not given): inactive: -2.06%. Next, `C#CCOCCOCCOCCNc1nc(N2CCOCC2)nc(N2CCN(C(=O)[C@H](Cc3cc4ccccc4[nH]3)n3cc([C@@H](N)CC(C)C)nn3)CC2)n1`: inactive: 0.976%. Consider `Oc1cccc(/C=N/NC(=S)NCCN2CCOCC2)c1O`, for which the activity change, negative = inhibition was inactive: 0.249%. Next, `Cn1c(=O)c2[nH]c(N3CCN(c4cccc(O)c4)CC3)nc2n(C)c1=O`: inactive: -0.157%; `CCOC(=O)N1CCC2(CC1)C(C#N)=C(N)OC1=C2C(=O)CC(C)(C)C1`: inactive: 0.294%; `CCOC(=O)c1cc2nc(Nc3ccc(OC)cc3)sc2s1`: inactive: 0.48%. For `NCc1nc(-c2ccc(Cl)cc2)no1`, the activity change, negative = inhibition is inactive: -0.361%. Next, `O=C(CSc1nnc(CNC(=O)c2ccccc2F)o1)NCCc1ccccc1`: inactive: 0.0457%; `CCN(C[C@H]1N[C@@](CC)(C(=O)OC)[C@H]2C(=O)N(C)C(=O)[C@@H]12)S(=O)(=O)c1ccc(C(F)(F)F)cc1`: inactive: 0.062%. Next, `O=C(NCCCNCCCNC(=O)c1ccc(/C=N/O)nc1)c1ccc(/C=N/O)nc1`: inactive: 0.197%. For `CCc1ccc([C@@H]2CC=C(C(=O)O)[C@H](c3ccc(C(C)(C)C)cc3)N2S(=O)(=O)c2ccc(C)cc2)cc1`, the activity change, negative = inhibition is inactive: 0.486%. Take `O=[N+]([O-])c1ccccc1NCc1ccc(Cl)cc1`: the activity change, negative = inhibition was inactive: 0.398%. As for `COC(=O)[C@]1(C)N[C@H](CN(C)C(=O)Nc2ccccc2)[C@@H]2C(=O)N(Cc3ccccc3)C(=O)[C@@H]21`, the activity change, negative = inhibition was inactive: 0.459%.

`C[C@H](CO)N1C[C@H](C)[C@@H](CN(C)S(C)(=O)=O)Oc2ccc(N(C)C)cc2C1=O`: the activity change, negative = inhibition was inactive: 0.057%. Regarding `COc1ccc(-n2cc(CNCCc3cscn3)c(-c3ccccc3Cl)n2)cc1`, the activity change, negative = inhibition was inactive: 0.131%. As to `Cc1ccccc1NC(=S)c1nc2ccccc2[nH]1`, the activity change, negative = inhibition is inactive: -0.36%.

For `O=C(Nc1ccc(Cl)c(C(F)(F)F)c1)NC1CC2CCCC(C1)N2Cc1ccccc1` (stereo not given), the activity change, negative = inhibition is inactive: 1.15%. Next, `CC(=O)N1CCc2cc(S(=O)(=O)NC(CC(C)C)C(=O)Nc3cc(C(=O)O)ccc3C)ccc21` (stereo not given): inactive: 0.617%.
